According to the supplement of paper PMC10849652:
The list shows a part of the results.

The chains behind the UniProt entries cited, without tags or fusion partners. Where a name states a change or a piece, a line headed by the entry shows the natural chain unless it says otherwise.
UniProt Q6PEV8: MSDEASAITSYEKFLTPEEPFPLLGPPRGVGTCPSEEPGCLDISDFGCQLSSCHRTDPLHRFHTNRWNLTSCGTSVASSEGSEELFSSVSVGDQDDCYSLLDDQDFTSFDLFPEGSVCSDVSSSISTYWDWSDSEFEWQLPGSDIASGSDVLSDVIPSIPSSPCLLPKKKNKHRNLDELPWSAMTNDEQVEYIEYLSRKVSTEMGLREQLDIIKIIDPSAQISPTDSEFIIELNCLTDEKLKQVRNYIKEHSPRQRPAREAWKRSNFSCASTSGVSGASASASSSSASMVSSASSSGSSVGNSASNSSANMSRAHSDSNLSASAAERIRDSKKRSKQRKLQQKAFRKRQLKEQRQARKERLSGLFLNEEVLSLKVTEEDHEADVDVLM
UniProt P41162: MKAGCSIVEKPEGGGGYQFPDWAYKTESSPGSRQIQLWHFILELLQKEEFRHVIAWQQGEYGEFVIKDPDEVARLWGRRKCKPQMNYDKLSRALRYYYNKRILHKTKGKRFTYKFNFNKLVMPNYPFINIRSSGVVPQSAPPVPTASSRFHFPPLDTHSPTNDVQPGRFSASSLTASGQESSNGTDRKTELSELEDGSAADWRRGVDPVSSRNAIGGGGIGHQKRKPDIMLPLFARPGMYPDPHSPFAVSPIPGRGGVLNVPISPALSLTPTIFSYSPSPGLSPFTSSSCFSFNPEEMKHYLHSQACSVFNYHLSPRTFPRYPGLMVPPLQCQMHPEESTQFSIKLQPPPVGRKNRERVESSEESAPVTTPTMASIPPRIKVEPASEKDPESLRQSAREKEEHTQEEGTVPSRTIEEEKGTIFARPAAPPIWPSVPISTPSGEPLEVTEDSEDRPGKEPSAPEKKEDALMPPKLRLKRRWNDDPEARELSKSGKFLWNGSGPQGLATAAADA
UniProt P43268: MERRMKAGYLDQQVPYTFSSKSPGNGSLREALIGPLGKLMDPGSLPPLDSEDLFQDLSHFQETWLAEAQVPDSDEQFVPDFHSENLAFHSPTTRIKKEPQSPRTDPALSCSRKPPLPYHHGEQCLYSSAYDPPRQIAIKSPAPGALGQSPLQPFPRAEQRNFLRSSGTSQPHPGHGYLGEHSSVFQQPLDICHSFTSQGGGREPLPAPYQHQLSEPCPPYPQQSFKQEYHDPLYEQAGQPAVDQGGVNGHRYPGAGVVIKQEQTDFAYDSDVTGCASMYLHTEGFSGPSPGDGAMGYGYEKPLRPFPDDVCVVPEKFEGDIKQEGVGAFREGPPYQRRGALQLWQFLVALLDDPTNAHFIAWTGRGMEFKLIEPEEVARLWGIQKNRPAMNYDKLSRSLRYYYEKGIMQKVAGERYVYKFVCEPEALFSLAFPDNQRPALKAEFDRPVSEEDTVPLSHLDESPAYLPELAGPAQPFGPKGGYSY
UniProt Q6NZ36: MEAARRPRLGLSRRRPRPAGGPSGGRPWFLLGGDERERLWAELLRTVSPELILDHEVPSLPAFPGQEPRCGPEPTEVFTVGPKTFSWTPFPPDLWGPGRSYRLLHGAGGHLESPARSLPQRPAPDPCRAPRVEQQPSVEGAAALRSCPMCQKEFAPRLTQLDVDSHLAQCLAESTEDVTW
UniProt Q9NVM1: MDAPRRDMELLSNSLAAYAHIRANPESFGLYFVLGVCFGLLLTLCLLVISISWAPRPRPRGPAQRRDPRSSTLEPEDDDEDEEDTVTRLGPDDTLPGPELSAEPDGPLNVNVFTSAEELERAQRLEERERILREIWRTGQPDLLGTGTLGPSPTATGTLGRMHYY
UniProt Q9Y2D4: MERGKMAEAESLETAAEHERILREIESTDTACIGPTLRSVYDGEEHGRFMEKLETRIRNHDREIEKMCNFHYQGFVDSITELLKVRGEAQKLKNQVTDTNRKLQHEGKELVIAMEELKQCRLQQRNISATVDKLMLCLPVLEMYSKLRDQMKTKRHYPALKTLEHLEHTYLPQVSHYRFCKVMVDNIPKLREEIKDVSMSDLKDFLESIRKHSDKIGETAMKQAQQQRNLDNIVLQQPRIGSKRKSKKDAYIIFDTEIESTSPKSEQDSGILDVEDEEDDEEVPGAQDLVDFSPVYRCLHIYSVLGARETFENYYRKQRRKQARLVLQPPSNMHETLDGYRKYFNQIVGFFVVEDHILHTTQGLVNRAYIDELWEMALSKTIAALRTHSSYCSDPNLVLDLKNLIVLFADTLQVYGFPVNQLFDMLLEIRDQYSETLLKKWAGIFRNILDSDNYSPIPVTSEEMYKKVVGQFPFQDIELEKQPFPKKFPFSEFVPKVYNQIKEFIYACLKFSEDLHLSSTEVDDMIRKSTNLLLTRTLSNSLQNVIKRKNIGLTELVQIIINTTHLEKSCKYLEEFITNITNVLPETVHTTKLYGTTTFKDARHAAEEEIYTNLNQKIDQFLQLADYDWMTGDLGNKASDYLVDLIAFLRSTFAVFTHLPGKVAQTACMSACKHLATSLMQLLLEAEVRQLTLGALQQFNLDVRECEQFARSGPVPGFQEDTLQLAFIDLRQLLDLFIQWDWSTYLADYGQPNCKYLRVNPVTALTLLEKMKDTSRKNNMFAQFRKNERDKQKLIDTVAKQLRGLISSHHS
UniProt Q5HYJ3: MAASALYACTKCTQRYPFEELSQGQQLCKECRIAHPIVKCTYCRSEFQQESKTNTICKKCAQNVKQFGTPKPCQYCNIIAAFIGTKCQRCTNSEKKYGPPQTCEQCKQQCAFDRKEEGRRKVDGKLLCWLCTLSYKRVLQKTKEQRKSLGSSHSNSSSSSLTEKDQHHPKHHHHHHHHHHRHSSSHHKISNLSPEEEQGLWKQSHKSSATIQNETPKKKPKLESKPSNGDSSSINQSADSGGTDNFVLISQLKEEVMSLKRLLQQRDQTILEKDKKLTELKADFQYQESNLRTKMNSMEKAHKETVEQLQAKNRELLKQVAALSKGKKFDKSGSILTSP
UniProt Q8IXR5: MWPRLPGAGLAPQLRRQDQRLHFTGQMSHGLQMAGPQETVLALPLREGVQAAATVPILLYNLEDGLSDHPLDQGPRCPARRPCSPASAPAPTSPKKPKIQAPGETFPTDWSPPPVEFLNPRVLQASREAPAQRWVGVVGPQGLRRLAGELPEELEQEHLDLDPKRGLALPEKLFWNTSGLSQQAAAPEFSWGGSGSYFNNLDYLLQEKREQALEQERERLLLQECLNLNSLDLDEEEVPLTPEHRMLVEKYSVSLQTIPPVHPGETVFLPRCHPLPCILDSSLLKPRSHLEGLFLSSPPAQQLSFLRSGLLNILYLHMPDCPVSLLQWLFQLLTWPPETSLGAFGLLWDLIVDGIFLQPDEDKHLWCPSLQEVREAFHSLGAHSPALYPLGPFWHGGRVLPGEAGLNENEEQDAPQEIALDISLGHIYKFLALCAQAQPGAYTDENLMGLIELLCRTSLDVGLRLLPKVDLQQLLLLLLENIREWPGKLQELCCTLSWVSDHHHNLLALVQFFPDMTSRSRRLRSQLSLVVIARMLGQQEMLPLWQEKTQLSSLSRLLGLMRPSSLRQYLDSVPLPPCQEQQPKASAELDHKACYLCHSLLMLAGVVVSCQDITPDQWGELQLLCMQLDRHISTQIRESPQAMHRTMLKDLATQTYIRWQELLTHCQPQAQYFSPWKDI
UniProt Q9BVV8: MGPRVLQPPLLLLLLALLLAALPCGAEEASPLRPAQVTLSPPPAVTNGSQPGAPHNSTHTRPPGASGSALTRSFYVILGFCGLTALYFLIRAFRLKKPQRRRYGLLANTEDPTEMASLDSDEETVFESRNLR
UniProt B1AK53: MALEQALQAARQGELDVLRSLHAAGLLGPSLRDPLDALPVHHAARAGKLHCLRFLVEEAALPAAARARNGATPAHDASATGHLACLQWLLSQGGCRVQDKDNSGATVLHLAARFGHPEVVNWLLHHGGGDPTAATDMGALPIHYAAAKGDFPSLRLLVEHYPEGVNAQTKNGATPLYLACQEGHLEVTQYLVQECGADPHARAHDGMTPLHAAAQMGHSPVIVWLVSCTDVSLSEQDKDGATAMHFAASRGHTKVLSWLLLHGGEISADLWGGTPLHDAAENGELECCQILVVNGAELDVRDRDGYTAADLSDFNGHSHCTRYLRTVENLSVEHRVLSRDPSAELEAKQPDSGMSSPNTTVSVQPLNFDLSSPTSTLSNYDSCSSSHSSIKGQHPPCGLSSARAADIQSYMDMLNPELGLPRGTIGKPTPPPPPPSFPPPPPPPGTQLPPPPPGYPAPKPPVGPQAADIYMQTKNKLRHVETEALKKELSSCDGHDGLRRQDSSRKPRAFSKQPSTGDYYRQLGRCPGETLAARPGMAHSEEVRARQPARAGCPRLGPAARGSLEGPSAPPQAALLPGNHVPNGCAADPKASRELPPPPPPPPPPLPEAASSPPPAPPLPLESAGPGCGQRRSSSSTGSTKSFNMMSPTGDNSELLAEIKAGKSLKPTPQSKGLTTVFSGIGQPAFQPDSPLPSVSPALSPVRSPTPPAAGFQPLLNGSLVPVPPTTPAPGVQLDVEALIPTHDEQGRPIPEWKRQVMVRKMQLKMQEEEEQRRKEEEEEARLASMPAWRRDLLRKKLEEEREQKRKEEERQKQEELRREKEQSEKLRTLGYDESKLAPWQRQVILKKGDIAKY

Experiments:
Assay in all cases: log2 fold change, soluble protein after heating vs DMSO (PISA); higher = thermal stabilisation; K562 lysate, 10 uM; active = over 0.2 and 3.5 SD of the protein, either way, in both replicates (recomputed)
[1] = compound: CC1=C(C=C(C=C1)NC(=O)C2=CC(=CC=C2)C(C)(C)C#N)NC3=CC4=C(C=C3)N=CN(C4=O)C
In short: (§1)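 Dounce homogenisation of K562 pellets in PBS pH 7.4 with 1 mM MgCl2 produced a crude extract, used at 1 mg/mL protein. Exposure to 10 μM compound lasted 30 min, and aliquots were then heated for 3 min across 48°C-58°C, pooled and brought to 0.5% NP-40 at 4°C. The supernatant after 21,000xg for 90 min was quantified by TMTpro 16plex LC-MS/MS with channel sums equalised. Duplicate values are given as log-two fold change in thermal stability relative to solvent controls.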

sotrastaurin = compound: CN1CCN(c2nc(C3=C(c4c[nH]c5ccccc45)C(=O)NC3=O)c3ccccc3n2)CC1 [sotrastaurin]
In short: as §1

ralimetinib = compound: CC(C)(C)Cn1c(N)nc2ccc(-c3[nH]c(C(C)(C)C)nc3-c3ccc(F)cc3)nc21 [ralimetinib]
In short: as §1

[2] = compound: CC(C)(O)CC(=O)NCCn1ccc2ncnc(Nc3ccc(Oc4cccc(C(F)(F)F)c4)c(Cl)c3)c21
In short: as §1

[3] = compound: CC1=C(C(CC(=O)N1)C2=CC=C(C=C2)C(F)(F)F)C(=O)NC3=C(C=C4C(=C3)C=NN4)F
In short: as §1

[4] = compound: CC1=C(C2=C(C=C1)C(=O)C3=CC=CC=C3N2CCCN)C
In short: as §1

[5] = compound: CC1=C(C=C(C=C1)NC(=O)C2=CC(=CC=C2)N(C)C)NC(=O)C3=CC=C(C=C3)O
In short: as §1

[6] = compound: CCn1c(C(=O)N(C2CC2)C2CC2)cc2c3c(ncn3C)c(Nc3cc(C)n(C)n3)nc21
In short: as §1

saracatinib = compound: CN1CCN(CCOc2cc(OC3CCOCC3)c3c(Nc4c(Cl)ccc5c4OCO5)ncnc3c2)CC1 [saracatinib]
In short: as §1

[7] = compound: CC[C@@H]1C(=O)N(C)c2cnc(Nc3ccc(C(=O)NC4CCN(C)CC4)cc3OC)nc2N1C1CCCC1
In short: as §1

[8] = compound: CC(C)C1=C2N=C(C=C(N2N=C1)NCC3=CC=CC=C3)NCCCCCCN
In short: as §1

vemurafenib = compound: CCCS(=O)(=O)Nc1ccc(F)c(C(=O)c2c[nH]c3ncc(-c4ccc(Cl)cc4)cc23)c1F [vemurafenib]
In short: as §1

[9] = compound: CCn1cc(-c2ccnc3[nH]c(-c4cccc(CN(C)C)c4)cc23)c(-c2ccc(NC(=O)N(C)C)cc2)n1
In short: as §1

[10] = compound: CN1CCC(CNc2ccc3ncc(-c4cccc(OC(F)(F)F)c4)n3n2)CC1
In short: as §1

[11] = compound: CC(=O)c1cnc2ccc(-c3cc(Cl)c(O)c(Cl)c3)nc2c1N[C@H]1CC[C@H](CN(C)C)CC1
In short: as §1

[12] = compound: CC1=CC=C(C=C1)SC2=C3C=C(SC3=CN=C2)C(=O)N
In short: as §1

[13] = compound: CCCS(=O)(=O)Nc1ccc(F)c(C(=O)c2c[nH]c3ncc(Cl)cc23)c1F
In short: as §1

volasertib = compound: CC[C@@H]1C(=O)N(C)c2cnc(Nc3ccc(C(=O)N[C@H]4CC[C@H](N5CCN(CC6CC6)CC5)CC4)cc3OC)nc2N1C(C)C [volasertib]
In short: as §1

Measured: log2 fold change

FAM199X (UniProt Q6PEV8)
inactive: [1] 0.024 | sotrastaurin -0.222

FAM3A (UniProt Q9BU27)
inactive: ralimetinib 0.013 | [2] 0.014 | [3] -0.225 | [4] -0.255 | [5] -0.074 | [6] -0.086 | saracatinib -0.204

ETV3 (UniProt P41162)
inactive: ralimetinib -0.161 | [2] 0.156 | [5] 0.031 | [7] 0.096 | [6] 0.051

Taken from above (2 entries):
FAM3A (UniProt Q9BU27)
inactive: ralimetinib 0.013 | [2] 0.014 | [3] -0.225 | [4] -0.255 | [5] -0.074 | [6] -0.086 | saracatinib -0.204

ETV3 (UniProt P41162)
inactive: ralimetinib -0.161 | [2] 0.156 | [5] 0.031 | [7] 0.096 | [6] 0.051

More entries follow:

ETV4 (UniProt P43268)
inactive: ralimetinib 0.12 | [2] -0.007 | [8] 0.015 | [3] 0.099 | [1] -0.05 | [5] -0.014 | vemurafenib -0.005 | [7] -0.272 | [6] 0.002 | [9] -0.046 | [10] -0.042 | sotrastaurin -0.105

FAAP20 isoform 2 (UniProt Q6NZ36)
inactive: [1] 0.082 | [9] -0.106 | [10] -0.161 | sotrastaurin -0.123

EVA1B (UniProt Q9NVM1)
inactive: ralimetinib -0.036 | [2] -0.078 | [8] -0.08 | [4] -0.317 | [1] 0.028 | [5] 0.122 | [6] 0.282 | saracatinib -0.001 | sotrastaurin -0.137

EXOC6B (UniProt Q9Y2D4)
inactive: [11] -0.039 | [3] 0.134 | [1] -0.034 | [12] 0.039 | vemurafenib 0.01 | [13] 0.039 | [7] 0.038 | volasertib -0.087 | sotrastaurin 0.003

FAM76B (UniProt Q5HYJ3)
inactive: [11] -0.025 | ralimetinib -0.005 | [2] -0.01 | [8] -0.06 | [3] -0.012 | [4] -0.02 | [1] 0.023 | [5] -0.002 | [12] -0.011 | vemurafenib 0.048 | [13] -0.005 | [7] 0.04 | volasertib 0.005 | [6] -0.008 | [9] 0.025 | [10] 0.007 | saracatinib -0.003 | sotrastaurin 0.027

FAM178B (UniProt Q8IXR5)
inactive: [1] 0.042 | [7] 0.21 | sotrastaurin -0.07

FAM174C (UniProt Q9BVV8)
inactive: [11] 0.154 | [8] -0.085 | [3] -0.162 | [12] 0.064 | [13] 0.013 | volasertib 0.127 | [9] -0.378 | [10] -0.1

ESPN (UniProt B1AK53)
inactive: ralimetinib 0.019 | [2] 0.075 | [4] -0.024 | [5] 0.092 | [7] -0.003 | [6] -0.193 | saracatinib -0.016
